Experimental data taken from PMC10483240.
No constants are given. Whether binding was seen depends on the method and setting. Binding seen in cells or lysates may run through a third protein. Binding calls can cover weak binding; strength is not graded here.

Sequences of proteins named here, by UniProt entry; tags and fusion partners are left off. A change or cut given only in a name is not applied to a line headed by its entry.
UniProt Q9WUU7: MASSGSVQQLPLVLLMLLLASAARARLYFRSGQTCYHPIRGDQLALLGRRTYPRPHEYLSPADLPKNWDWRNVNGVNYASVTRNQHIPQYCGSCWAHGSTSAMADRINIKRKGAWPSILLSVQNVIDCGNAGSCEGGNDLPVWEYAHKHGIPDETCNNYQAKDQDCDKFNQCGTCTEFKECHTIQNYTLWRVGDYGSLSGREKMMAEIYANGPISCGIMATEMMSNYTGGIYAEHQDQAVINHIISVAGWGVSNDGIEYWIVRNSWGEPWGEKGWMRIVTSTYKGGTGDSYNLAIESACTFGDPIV

Target: cathepsin Z (mouse (endogenous in testis)) (UniProt Q9WUU7)
Experiment: co-IP; antibody against the partner (anti-STX7, anti-LYZL4, anti-MAP1B, anti-Cathepsin Z, anti-AP1M1, anti-AP2B1, anti-AP3D1; rabbit or mouse control) on protein G beads; mouse testis homogenate in 125 mM KCl, 10 mM EDTA, 20 mM HEPES pH 7.2, supernatant with 1% NP-40 alternative; Western blot for inceptor

binding: binds
B1: insulin inhibitory receptor (inceptor) (receptor, UniProt A2AFS3 36-1009)
chain: FQVTLGTGPELHACKESEYHFEYTACDSTGSRWRVAVPHSPGLCTSLPDPVKGTECSFSCNAGEFLDMKDQSCKPCAEGRYSLGTGIRFDEWDELPHGFASLSANLEVDDSISESTENCTSSKWVPRGDYIASNTDECTATLMYAVNLKQSGTVNFEYYYPDSSIIFEFFVQNDQCQPSADDSRWMKTTEKGWVELNRGNNVLYWRTTAFSVWSKVSKPVLVRNIAITGVAYTSECFPCKPGTYAAKQGSPFCKLCPANYYSNKGETSCHPCDADKYSEKGSSTCKVRPACTDKDYFYTHTACDAQGETQLMYKWAIPKICGEDLEGAVKLPASGVKTRCPPCNPGFFKTDNSTCEPCPYGSYSNGSDCTHCPAGTEPAVGFEYKWWNTLPSNMETTVLSGINFEYKGLTGWEVAGDHIYTAVGASDNDFMILTLVVPGFRPPQSVVADTENKEVARITFVFETICSVNCELYFMVGMNSRTNTPVETWKGTKGKQSYTYTIEENATVSFTWAFQRTTLHETGRKYTNDVAKIYSINVTNVMGGVASYCRPCALEASDLGSSCTSCPAGHYINRDSGTCHLCPSNTILKAHQPYGAQACVPCGPGTKNNKIHSLCYNDCTFSRNTPSRIFNYNFSALAGTVSLAGVPSFTSKGLKYFHHFTLSLCGNQGKKMAVCTDNVTDLRIPDGEAGFSKSVTAYVCQVVIIPSEVMGYKAGVSSQPVSLADRLVGVSTDMTLEGIVSPVELFHPETSGIPDIVFFFRSNDVTQSCSSGRSTTIRLRCNPMKAAPGTLRLPSMCSDGTCDGCNFHFLWESVAACPLCSASDYHTFVSSCVAGIQKTTYMWREPKLCSGGISLPEQRVTICKTIDFWLKVGISAGTCTAILLTVLTCYFWKKNQKLEYKYSKLVMNATLKDCDLPAADSCAIMEGEDVEDDFIFTSKKSLFGKIKSFTSKRTPDGFDSVPLKTSSGGPDMDM
